According to PubChem BioAssay AID328 (DTP/NCI, 2004):
The list shows only some results of the screen, not a fair sample: it is rich in T/C values a quarter to a half above the control, in often repeated tests (any T/C) and in doses without a T/C. Further doses and runs are listed elsewhere. T/C is the treated group as % of the vehicle group. Some entries give survivors of the animals treated and no T/C: the source holds a T/C of zero for them, seemingly a mark for toxic or unscored doses. Some doses without a T/C left all or most animals alive at the check, yet need not have been tolerated: survival well below the control is almost never listed, so the zero probably covers shortened survival too. Survivors were counted at the toxicity check, usually on the fifth day, unless a day is given; later deaths do not show. Schedule codes are those of the source, taken here to give the interval after Q, in days (D) or hours (H), and the number of doses after X. Some doses were run more than once; their values stand side by side, smallest first. Where survival is the endpoint, this PubChem deposit counts one and a half times the control or more as active, and values a quarter to a half above the control carry no call in these data; other NCI protocols may use other cut-offs. Some T/C values carry the count of animals alive at the toxicity check (mostly the fifth day); without a count, all were alive then.

Test system: BDF1 mice, P388 leukemia ip, median survival T/C
Test: NCI In Vivo Anticancer Drug Screen. Data for tumor model P388 Leukemia (intraperitoneal) in B6D2F1 (BDF1) mice
Conditions: T/C endpoint: median survival time, higher T/C = longer survival
Summary of the method: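 Compound-treated tumour-bearing mice were compared with vehicle-treated controls. Survival was recorded, and the value is the treated-group measurement divided by the control-group measurement (T/C).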

[1] = dose: 400.0 mg/kg/injection, schedule: Q01DX009 (ip), vehicle: saline with Tween-80
[2] = dose: 400.0 mg/kg/injection, schedule: Q04DX003 (ip), vehicle: saline with Tween-80
[3] = dose: 200.0 mg/kg/injection, schedule: Q01DX009 (ip), vehicle: saline with Tween-80
[4] = dose: 50.0 mg/kg/injection, schedule: Q01DX009 (ip), vehicle: saline with Tween-80
[5] = dose: 100.0 mg/kg/injection, schedule: Q04DX003 (ip), vehicle: saline with Tween-80
[6] = dose: 100.0 mg/kg/injection, schedule: Q01DX009 (ip), vehicle: saline with Tween-80
[7] = dose: 1.5 mg/kg/injection, schedule: Q01DX009 (ip), vehicle: saline
[8] = dose: 3.0 mg/kg/injection, schedule: Q01DX009 (ip), vehicle: saline

For `CSCCC1NC(=O)C(/C(C)=N\NC(N)=O)=C1O` (stereo unspecified), the survivor count [1] was 3 of 6.
With `Cc1cc2nc(C)c(=O)[nH]c2cc1C` the survivor count (dose: 400.0 mg/kg/injection, schedule: Q01DX009 (ip), vehicle: Klucel (hydroxypropylcellulose) (HPC)) was 5 of 6.
`C=C(C)C12OC3(c4ccccc4)OC1C1C4OC4(CO)C(O)C4(O)C(=O)C(C)=CC4C1(O3)C(C)C2OC(=O)/C=C/C=C/c1ccccc1` (stereo unspecified) was tested, and the T/C (dose: 0.05 mg/kg/injection, schedule: Q01DX009 (ip), vehicle: saline + alcohol) was 147 % of control, the T/C (dose: 0.1 mg/kg/injection, schedule: Q01DX009 (ip), vehicle: saline + alcohol) was 148 % of control and the survivor count (dose: 0.2 mg/kg/injection, schedule: Q01DX009 (ip), vehicle: saline + alcohol) was 6 of 6. The T/C (dose: 0.25 mg/kg/injection, schedule: Q01DX009 (ip), vehicle: saline + alcohol) was 141 % of control, the survivor count (dose: 0.4 mg/kg/injection, schedule: Q01DX009 (ip), vehicle: saline + alcohol) was 5 of 6 and the survivor count (dose: 1.0 mg/kg/injection, schedule: Q01DX009 (ip), vehicle: saline + alcohol) was 5 of 6. For the same molecule, the survivor count (dose: 2.0 mg/kg/injection, schedule: Q01DX009 (ip), vehicle: saline + alcohol) was 3 of 6, the T/C (dose: 12.5 micrograms/kg/injection, schedule: Q01DX009 (ip), vehicle: saline + alcohol) was 128 % of control and the T/C (dose: 25.0 micrograms/kg/injection, schedule: Q01DX009 (ip), vehicle: saline + alcohol) was 127 % of control. For the same molecule, the survivor count (dose: 50.0 micrograms/kg/injection, schedule: Q01DX009 (ip), vehicle: saline + alcohol) was 5 of 6, the survivor count (dose: 100.0 micrograms/kg/injection, schedule: Q01DX009 (ip), vehicle: gum acacia) was 6 of 6 and the survivor count (dose: 100.0 micrograms/kg/injection, schedule: Q01DX009 (ip), vehicle: saline + alcohol) was 5 of 6 and 6 of 6. For the same molecule, the survivor count (dose: 200.0 micrograms/kg/injection, schedule: Q01DX009 (ip), vehicle: gum acacia) was 2 of 6, the survivor count (dose: 200.0 micrograms/kg/injection, schedule: Q01DX009 (ip), vehicle: saline + alcohol) was 1 of 6 and the survivor count (dose: 200.0 micrograms/kg/injection, schedule: Q01DX009 (ip), vehicle: saline with Tween-80) was 0 of 6. For the same molecule, the survivor count (dose: 400.0 micrograms/kg/injection, schedule: Q01DX009 (ip), vehicle: gum acacia) was 1 of 6, the survivor count (dose: 400.0 micrograms/kg/injection, schedule: Q01DX009 (ip), vehicle: saline with Tween-80) was 0 of 6 and the survivor count (dose: 800.0 micrograms/kg/injection, schedule: Q01DX009 (ip), vehicle: gum acacia) was 0 of 6. For the same molecule, the survivor count (dose: 800.0 micrograms/kg/injection, schedule: Q01DX009 (ip), vehicle: saline with Tween-80) was 0 of 6.
In the case of `CN(C)Nc1ncnc2nc[nH]c12`, the survivor count (dose: 200.0 mg/kg/injection, schedule: Q01DX009 (ip), vehicle: saline) is reported as 0 of 6 and the survivor count [2] is reported as 3 of 6.
In the case of `O=[N+]([O-])c1cc([N+](=O)[O-])c2ccccc2c1NS(=O)(=O)c1ccc(Cl)c(Cl)c1`, the survivor count [3] is reported as 1 of 6.
For `COc1ccc(CNCC(=O)OCc2ccccc2)cc1`, the survivor count [2] was 2 of 6.
In the case of `CCN(CC)CCCNc1cccc2c(C)cc(OC)nc12`, the survivor count [3] is reported as 1 of 6.
In the case of `CC1CNCC(C)N1C(=O)c1ccccc1` (stereo unspecified), the T/C (dose: 0.8 mg/kg/injection, schedule: Q01DX009 (ip), vehicle: water) is reported as 125 % of control.
`C[n+]1ccc(Nc2ccc(NC(=O)c3ccc(N)cc3)cc2)cc1` was tested, and the T/C (dose: 25.0 mg/kg/injection, schedule: Q01DX009 (ip), vehicle: water) was 144 % of control, the T/C (dose: 25.0 mg/kg/injection, schedule: Q04DX003 (ip), vehicle: water) was 126 % of control and the T/C (dose: 50.0 mg/kg/injection, schedule: Q01DX009 (ip), vehicle: water) was 135 % of control. For the same molecule, the T/C (dose: 50.0 mg/kg/injection, schedule: Q04DX003 (ip), vehicle: water) was 133 % of control, the T/C (dose: 100.0 mg/kg/injection, schedule: Q04DX003 (ip), vehicle: water) was 135 % of control and the T/C (dose: 200.0 mg/kg/injection, schedule: Q04DX003 (ip), vehicle: water) was 133 % of control [5 of 6 alive].
`O=C(NC(Cc1ccccc1)C(=O)CCl)OCc1ccccc1` (stereo unspecified) was tested, and the T/C (dose: 10.0 mg/kg/injection, schedule: Q01DX009 (ip), vehicle: saline with Tween-80) was 125 % of control, the T/C (dose: 11.0 mg/kg/injection, schedule: Q01DX009 (ip), vehicle: saline with Tween-80) was 131 and 140 % of control and the T/C (dose: 12.5 mg/kg/injection, schedule: Q01DX009 (ip), vehicle: saline with Tween-80) was 127 % of control. The T/C (dose: 16.5 mg/kg/injection, schedule: Q01DX009 (ip), vehicle: saline with Tween-80) was 127 [5 of 6 alive] and 142 % of control, the T/C (dose: 25.0 mg/kg/injection, schedule: Q01DX009 (ip), vehicle: saline with Tween-80) was 127 % of control and the survivor count [4] was 6 of 6.
`c1cnc2c3c(ccc2c1)CN(C12CC4CC(CC(C4)C1)C2)CO3` was tested, and the T/C [5] was 127 % of control and the survivor count (dose: 200.0 mg/kg/injection, schedule: Q04DX003 (ip), vehicle: saline with Tween-80) was 4 of 6.
With `CS/C(N)=N/N` the survivor count (dose: 25.0 mg/kg/injection, schedule: Q04DX003 (ip), vehicle: saline) was 2 of 6.
`CC(=O)NC1C(S[As](C)C)OC(COC(C)=O)C(OC(C)=O)C1OC(C)=O` (stereo unspecified) was tested, and the T/C [4] was 136 % of control and the T/C [3] was 127 % of control [5 of 6 alive].
With `CC(C)CC(CC(C)C)NCC(C)OC(=O)c1ccc(N)cc1` (stereo unspecified) the survivor count (dose: 12.5 mg/kg/injection, schedule: Q04DX003 (ip), vehicle: saline with Tween-80) was 6 of 6, the survivor count (dose: 25.0 mg/kg/injection, schedule: Q04DX003 (ip), vehicle: saline with Tween-80) was 6 of 6 and the survivor count [4] was 3 of 6. For the same molecule, the survivor count (dose: 50.0 mg/kg/injection, schedule: Q04DX003 (ip), vehicle: saline with Tween-80) was 5 of 6, the survivor count [6] was 1 of 6 and the survivor count [5] was 1 of 6.
With `NC(N)=N/N=C/C(Cl)Cl` the survivor count (dose: 50.0 mg/kg/injection, schedule: Q01DX009 (ip), vehicle: saline) was 6 of 6.
`CCOC(=O)CC(=O)c1ccc(C)cc1` was tested, and the survivor count [1] was 3 of 6.
In the case of `CCNC(C)(C)C(SSS)c1ccco1` (stereo unspecified), the survivor count (dose: 200.0 mg/kg/injection, schedule: Q01DX009 (ip), vehicle: gum acacia) is reported as 6 of 6, the T/C (dose: 200.0 mg/kg/injection, schedule: Q04DX003 (ip), vehicle: gum acacia) is reported as 129 % of control and the survivor count (dose: 300.0 mg/kg/injection, schedule: Q01DX009 (ip), vehicle: gum acacia) is reported as 3 of 6.
`CC1=CC23C(COC(=O)C24CO4)C(C(=O)O)=CC3C1C` (stereo unspecified) was tested, and the survivor count (dose: 2.5 mg/kg/injection, schedule: Q01DX009 (ip), vehicle: Klucel (hydroxypropylcellulose) (HPC)) was 2 of 3 and the survivor count (dose: 5.0 mg/kg/injection, schedule: Q01DX009 (ip), vehicle: Klucel (hydroxypropylcellulose) (HPC)) was 2 of 3.
With `Nc1nc(N)c(N=O)c(Nc2ccc(I)cc2)n1` the survivor count [1] was 2 of 6.
`COc1cc(OC)c(/C=C/c2cc[n+](C)c3ccccc23)c(OC)c1` was tested, and the T/C (dose: 0.75 mg/kg/injection, schedule: Q01DX009 (ip), vehicle: saline) was 116, 118, 126, 139 % of control, the T/C [7] was 127, 139 [5 of 6 alive], 144 % of control and the survivor count [7] was 3 of 6. For the same molecule, the T/C [8] was 130 % of control, the survivor count [8] was 2 of 6 and 3 of 6 and the survivor count (dose: 6.0 mg/kg/injection, schedule: Q01DX009 (ip), vehicle: saline) was 0 of 6.
`C[C@]12CC[C@H]3[C@@H](CC[C@H]4N(CCCl)CCC[C@]34C)[C@@H]1CC[C@@H]2O` was tested, and the T/C (dose: 50.0 mg/kg/injection, schedule: Q01DX001 (ip), vehicle: saline) was 126 % of control and the survivor count (dose: 100.0 mg/kg/injection, schedule: Q01DX001 (ip), vehicle: saline) was 0 of 6.
`COc1cc2ccc3c(c2cc1OC)C=[N+](C)CC3` was tested, and the T/C [6] was 133 % of control and the survivor count [3] was 4 of 6.
In the case of `Cc1ccc(NC(=O)Oc2ccc(Br)cc2Br)c([N+](=O)[O-])c1`, the T/C [4] is reported as 126 % of control, the T/C [3] is reported as 126 % of control and the T/C [1] is reported as 130 % of control.
